From PMC10371266
Results are given in words; binding and its absence hold for the method and conditions named. Binding seen in cells or lysates may run through a third protein. Some results given as binding are weak or reduced against the parent protein; the word gives no strength.

By UniProt entry, the sequences of proteins in these tests, tags left out. Where a name states a change or a piece, a line headed by the entry shows the natural chain unless it says otherwise. Chains listed by the source or under a name are the forms on record and can include a tag or linker. Residues count along the entry.
human type IV collagen α5 chain fused to LgBiT, α5(IV)-LgBiT wild type (P29400, residues 27-1685): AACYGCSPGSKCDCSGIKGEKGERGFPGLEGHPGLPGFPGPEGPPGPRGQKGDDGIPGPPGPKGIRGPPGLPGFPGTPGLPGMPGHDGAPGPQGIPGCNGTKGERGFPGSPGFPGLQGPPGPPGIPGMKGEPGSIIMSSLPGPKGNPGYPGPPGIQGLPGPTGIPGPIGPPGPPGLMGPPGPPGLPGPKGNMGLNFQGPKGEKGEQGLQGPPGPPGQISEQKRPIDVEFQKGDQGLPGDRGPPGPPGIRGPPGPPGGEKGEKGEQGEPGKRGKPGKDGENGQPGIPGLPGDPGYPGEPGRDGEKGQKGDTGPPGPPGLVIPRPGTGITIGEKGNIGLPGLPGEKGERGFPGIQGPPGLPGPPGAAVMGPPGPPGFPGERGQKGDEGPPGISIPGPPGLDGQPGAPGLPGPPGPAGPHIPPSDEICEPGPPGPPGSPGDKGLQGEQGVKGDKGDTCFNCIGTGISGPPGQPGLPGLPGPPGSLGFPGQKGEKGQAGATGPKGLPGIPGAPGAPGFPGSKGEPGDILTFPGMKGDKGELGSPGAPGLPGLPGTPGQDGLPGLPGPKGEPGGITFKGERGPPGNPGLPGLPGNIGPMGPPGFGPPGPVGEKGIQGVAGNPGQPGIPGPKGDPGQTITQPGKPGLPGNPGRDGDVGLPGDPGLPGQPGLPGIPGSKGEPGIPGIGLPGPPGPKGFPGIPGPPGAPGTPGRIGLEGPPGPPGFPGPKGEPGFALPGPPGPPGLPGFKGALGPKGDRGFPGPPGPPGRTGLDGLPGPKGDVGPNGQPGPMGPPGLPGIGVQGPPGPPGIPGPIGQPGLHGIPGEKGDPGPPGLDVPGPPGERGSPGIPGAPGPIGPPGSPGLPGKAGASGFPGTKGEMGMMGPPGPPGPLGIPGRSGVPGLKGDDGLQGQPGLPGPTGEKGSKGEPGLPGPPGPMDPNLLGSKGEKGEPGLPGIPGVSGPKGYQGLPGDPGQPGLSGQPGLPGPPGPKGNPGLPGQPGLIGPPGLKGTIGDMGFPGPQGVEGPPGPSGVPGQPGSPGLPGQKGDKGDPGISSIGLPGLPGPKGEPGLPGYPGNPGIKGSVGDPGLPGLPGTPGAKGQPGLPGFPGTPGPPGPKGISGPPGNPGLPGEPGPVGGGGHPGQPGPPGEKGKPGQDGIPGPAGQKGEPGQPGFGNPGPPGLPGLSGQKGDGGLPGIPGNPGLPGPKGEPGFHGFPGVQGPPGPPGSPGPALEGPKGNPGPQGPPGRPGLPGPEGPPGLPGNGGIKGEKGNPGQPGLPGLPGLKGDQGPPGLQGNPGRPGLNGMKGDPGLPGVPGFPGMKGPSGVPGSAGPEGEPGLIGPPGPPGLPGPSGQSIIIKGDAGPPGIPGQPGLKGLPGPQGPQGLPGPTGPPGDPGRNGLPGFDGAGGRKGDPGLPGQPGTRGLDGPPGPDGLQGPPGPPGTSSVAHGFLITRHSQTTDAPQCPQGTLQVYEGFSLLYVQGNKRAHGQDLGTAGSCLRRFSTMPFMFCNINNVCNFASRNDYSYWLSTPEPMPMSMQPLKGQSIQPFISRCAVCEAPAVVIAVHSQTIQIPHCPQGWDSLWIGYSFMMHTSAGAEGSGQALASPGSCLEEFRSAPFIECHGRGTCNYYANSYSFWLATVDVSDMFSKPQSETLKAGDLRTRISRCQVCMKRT
human type IV collagen α5 chain G869R fused to LgBiT (P29400, form named): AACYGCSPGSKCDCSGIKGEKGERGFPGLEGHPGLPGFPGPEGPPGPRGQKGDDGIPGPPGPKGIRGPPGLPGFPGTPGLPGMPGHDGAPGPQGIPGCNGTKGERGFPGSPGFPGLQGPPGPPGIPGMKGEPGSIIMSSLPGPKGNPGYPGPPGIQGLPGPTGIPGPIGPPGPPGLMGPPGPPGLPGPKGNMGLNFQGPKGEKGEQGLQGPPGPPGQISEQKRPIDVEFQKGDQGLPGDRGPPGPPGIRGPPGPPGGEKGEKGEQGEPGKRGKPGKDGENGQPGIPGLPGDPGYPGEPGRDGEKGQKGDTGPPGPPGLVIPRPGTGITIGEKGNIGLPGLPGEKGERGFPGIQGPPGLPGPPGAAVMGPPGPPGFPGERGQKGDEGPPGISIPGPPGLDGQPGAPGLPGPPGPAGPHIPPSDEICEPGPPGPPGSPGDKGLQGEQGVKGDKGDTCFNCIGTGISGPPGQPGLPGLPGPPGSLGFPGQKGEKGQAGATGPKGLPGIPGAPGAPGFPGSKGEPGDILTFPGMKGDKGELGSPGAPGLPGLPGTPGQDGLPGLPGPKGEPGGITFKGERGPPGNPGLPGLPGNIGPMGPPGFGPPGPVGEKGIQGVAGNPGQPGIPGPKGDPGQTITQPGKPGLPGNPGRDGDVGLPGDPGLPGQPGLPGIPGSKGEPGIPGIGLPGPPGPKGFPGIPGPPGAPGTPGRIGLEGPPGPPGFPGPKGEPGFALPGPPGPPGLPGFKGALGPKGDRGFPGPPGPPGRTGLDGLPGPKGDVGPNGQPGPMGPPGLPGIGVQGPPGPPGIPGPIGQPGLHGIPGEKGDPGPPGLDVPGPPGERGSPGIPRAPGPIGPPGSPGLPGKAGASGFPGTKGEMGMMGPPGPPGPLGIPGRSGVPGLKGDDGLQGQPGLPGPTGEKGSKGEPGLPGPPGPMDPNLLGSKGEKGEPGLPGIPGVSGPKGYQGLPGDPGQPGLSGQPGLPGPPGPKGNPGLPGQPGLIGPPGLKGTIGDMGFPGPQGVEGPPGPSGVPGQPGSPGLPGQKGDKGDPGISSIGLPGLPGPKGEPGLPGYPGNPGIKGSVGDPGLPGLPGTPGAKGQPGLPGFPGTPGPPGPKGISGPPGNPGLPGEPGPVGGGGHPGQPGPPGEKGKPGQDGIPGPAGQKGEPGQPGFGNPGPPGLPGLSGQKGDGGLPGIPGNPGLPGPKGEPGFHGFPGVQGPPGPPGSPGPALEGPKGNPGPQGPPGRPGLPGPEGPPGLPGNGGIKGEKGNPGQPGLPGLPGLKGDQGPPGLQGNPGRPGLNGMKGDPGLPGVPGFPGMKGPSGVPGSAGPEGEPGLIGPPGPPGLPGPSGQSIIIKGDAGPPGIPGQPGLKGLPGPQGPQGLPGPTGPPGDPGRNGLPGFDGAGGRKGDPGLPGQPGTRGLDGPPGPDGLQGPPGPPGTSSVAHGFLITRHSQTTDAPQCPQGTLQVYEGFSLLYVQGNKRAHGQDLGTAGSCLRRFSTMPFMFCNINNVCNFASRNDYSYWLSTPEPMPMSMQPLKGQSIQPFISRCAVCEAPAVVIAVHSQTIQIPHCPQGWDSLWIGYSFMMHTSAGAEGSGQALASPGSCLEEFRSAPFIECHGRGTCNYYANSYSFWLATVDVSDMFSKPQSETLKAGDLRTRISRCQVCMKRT
human type IV collagen α5 chain G1220D fused to LgBiT (P29400, form named): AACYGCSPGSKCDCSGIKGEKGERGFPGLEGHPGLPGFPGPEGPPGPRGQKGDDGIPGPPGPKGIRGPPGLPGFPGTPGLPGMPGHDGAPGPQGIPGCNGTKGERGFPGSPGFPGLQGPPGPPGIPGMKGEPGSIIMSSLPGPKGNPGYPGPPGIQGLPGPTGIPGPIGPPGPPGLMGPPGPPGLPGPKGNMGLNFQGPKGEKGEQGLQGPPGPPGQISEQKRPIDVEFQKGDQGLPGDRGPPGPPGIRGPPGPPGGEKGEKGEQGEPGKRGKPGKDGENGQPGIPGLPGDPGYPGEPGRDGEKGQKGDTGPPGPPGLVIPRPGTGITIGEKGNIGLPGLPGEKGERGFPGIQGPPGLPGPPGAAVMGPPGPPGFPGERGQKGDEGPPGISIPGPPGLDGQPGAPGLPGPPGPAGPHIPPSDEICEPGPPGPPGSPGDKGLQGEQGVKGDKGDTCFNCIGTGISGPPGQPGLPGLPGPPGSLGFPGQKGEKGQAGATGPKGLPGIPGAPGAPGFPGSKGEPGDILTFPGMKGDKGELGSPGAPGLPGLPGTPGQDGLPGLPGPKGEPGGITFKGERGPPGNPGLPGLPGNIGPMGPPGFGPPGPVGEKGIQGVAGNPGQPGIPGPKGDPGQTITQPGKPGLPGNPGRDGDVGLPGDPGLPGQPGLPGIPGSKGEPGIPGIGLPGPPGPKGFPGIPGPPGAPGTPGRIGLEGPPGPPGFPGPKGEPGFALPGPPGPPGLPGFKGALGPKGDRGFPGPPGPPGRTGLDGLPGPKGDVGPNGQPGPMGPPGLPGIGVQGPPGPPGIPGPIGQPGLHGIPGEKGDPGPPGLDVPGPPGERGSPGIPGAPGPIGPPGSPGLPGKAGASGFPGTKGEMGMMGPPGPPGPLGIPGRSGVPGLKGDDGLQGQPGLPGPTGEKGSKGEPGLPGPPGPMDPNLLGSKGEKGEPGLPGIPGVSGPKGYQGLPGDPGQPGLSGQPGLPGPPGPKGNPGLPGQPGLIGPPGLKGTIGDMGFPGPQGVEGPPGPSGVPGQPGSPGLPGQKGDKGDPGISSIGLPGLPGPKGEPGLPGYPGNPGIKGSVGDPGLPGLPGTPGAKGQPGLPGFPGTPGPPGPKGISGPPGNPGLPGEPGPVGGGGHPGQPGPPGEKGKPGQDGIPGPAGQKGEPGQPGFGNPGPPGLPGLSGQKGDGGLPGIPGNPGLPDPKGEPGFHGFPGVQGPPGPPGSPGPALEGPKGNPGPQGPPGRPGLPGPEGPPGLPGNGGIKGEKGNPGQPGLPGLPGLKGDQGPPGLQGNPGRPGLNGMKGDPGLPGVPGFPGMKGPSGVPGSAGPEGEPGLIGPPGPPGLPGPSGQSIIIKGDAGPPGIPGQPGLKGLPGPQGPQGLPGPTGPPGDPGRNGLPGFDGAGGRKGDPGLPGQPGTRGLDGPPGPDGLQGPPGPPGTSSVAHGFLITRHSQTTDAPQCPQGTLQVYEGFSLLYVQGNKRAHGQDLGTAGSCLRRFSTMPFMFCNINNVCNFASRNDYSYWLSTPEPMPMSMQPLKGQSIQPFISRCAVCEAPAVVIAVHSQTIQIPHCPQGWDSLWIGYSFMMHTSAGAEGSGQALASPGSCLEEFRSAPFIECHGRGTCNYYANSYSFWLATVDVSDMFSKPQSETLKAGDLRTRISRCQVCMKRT

Columns and labels:
[1] = biological target: human type IV collagen α3 chain fused to SmBiT, α3(IV)-SmBiT (human) (UniProt Q01955); assay: split reporter; HEK293T cells transiently cotransfected with α3(IV)-SmBiT, α4(IV)-3×FLAG and α5(IV)-LgBiT (WT or mutants); luminescence of intracellular and secreted trimer; cells treated with DMSO, 1 μM CsA or 2 μM ALV
[2] = biological target: human type IV collagen α3 chain fused to SmBiT, α3(IV)-SmBiT (human) (UniProt Q01955); assay: split reporter; HEK293T cells stably expressing α3(IV)-SmBiT, α4(IV)-3×FLAG and α5(IV)-LgBiT G1244D; luminescence of intracellular and secreted trimer (cells and culture medium), Nano-Glo Live Cell Assay; cells treated 24 h with DMSO, CsA, BFA, osmolytes, ALV and other compounds
[3] = biological target: human type IV collagen α3 chain G1219C fused to SmBiT (human) (UniProt Q01955); assay: split reporter; HEK293T cells transiently cotransfected with α3(IV)-SmBiT, α4(IV)-3×FLAG and α5(IV)-LgBiT (WT or mutants); luminescence of intracellular and secreted trimer; cells treated with DMSO, 1 μM CsA or 2 μM ALV

binding [1]	binding [2]	binding [3]	Substance
binds	–	–	human type IV collagen α5 chain G869R fused to LgBiT (from UniProt P29400 27-1685)
binds	–	–	human type IV collagen α5 chain G1220D fused to LgBiT (from UniProt P29400 27-1685)
binds	–	–	human type IV collagen α5 chain G1241C fused to LgBiT (from UniProt P29400 27-1685)
binds	–	–	human type IV collagen α5 chain G1241V fused to LgBiT (from UniProt P29400 27-1685)
binds	binds	–	human type IV collagen α5 chain G1244D fused to LgBiT, α5(IV)-LgBiT G1244D (from UniProt P29400 27-1685)
binds	–	binds	human type IV collagen α5 chain fused to LgBiT, α5(IV)-LgBiT wild type (from UniProt P29400 27-1685)
